No constants are given. Whether binding was seen depends on the method and setting. Binding seen in cells or lysates may run through a third protein. Some binding calls cover weakened binding; strength is not graded here.

By UniProt entry, the sequences of proteins in these tests, tags left out. Where a name states a change or a piece, a line headed by the entry shows the natural chain unless it says otherwise. Chains listed by the source or under a name are the forms on record and can include a tag or linker.
FGFR3 carrying the A391E mutation (Crouzon syndrome with Acanthosis Nigricans) (P22607, form named): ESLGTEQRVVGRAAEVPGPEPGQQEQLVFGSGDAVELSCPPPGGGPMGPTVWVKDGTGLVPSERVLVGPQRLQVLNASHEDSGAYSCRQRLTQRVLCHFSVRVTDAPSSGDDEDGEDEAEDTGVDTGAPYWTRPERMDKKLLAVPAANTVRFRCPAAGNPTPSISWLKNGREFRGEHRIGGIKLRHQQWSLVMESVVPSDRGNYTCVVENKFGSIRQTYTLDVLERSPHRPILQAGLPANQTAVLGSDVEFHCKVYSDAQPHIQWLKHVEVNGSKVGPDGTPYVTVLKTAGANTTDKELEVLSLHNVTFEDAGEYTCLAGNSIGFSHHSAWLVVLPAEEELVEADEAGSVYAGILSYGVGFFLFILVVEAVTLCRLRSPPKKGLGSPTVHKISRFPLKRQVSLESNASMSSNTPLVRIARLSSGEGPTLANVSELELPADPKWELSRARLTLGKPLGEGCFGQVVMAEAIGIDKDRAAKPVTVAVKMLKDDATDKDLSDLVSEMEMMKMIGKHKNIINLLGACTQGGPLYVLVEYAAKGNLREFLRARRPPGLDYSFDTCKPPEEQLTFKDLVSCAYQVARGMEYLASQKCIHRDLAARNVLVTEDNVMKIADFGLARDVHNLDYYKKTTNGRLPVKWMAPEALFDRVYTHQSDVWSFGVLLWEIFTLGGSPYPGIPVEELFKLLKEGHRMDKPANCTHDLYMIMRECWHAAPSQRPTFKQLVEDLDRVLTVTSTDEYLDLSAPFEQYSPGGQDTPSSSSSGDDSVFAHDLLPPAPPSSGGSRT

This experiment addresses FGFR3 carrying the A391E mutation (Crouzon syndrome with Acanthosis Nigricans) (human) (UniProt P22607). Briefly: FRET or BRET; unpublished work, not shown; no ligand.

With “FGFR3 carrying the A391E mutation (Crouzon syndrome with Acanthosis Nigricans) (from UniProt P22607 23-806) (receptor)”, the binding entry is on record as “binds”.

Source of the values: paper PMC3577887, “Multiple Consequences of a Single Amino Acid Pathogenic RTK Mutation: The A391E Mutation in FGFR3” (PLoS ONE, 2013).
